In PubChem BioAssay AID2685 (National Center for Advancing Translational Sciences (NCATS), 2010):
This is one part of the list. Shown are side measurements of this screen, not its main read-out; they come without a call. The list favours compounds with an active or inconclusive main result. Words in brackets tell the shape of the fitted curve; partial curves, single points and poor fits give uncertain potencies.

Assay: qHTS Assay for Lipid Storage Modulators in Drosophila S3 Cells;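 for cell number change: cells counted by Cell Tracker Red CMTPX staining in the red channel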
Settings: BODIPY lipid droplet fluorescence, 18-24 h; for cell number change: measured here: cell count max response, cells fed with added oleic acid
Procedure, shortened: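 Laser-scanning cytometry quantifies lipid droplet accumulation (500–530 nm total intensity; droplet/cell object ratio) in oleic acid-fed (400 uM added) Drosophila S3 cells treated with a concentration series. 20 uM Triacsin C defined 100% inhibition.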

[1] = measured here: lipid fluorescence (Fed channel) AC50, cells fed with added oleic acid
[2] = measured here: cell number channel AC50, cells fed with added oleic acid

Row | SMILES | cell number change | AC50 [1] | AC50 [2]
1 | N#CCC(=O)Nc1ccc(C(=O)OCC(=O)Nc2cccc(C(F)(F)F)c2)cc1 | -19.9% | – | –
2 | Cc1nn(-c2ccccc2)c(N2CCCC2)c1/C=N/NC(=O)C1CC1 | – | 20.6 µM [rising, single point] | –
3 | CC(C)(C)n1nc2c(c1NC(=O)c1cc([N+](=O)[O-])ccc1Cl)CS(=O)(=O)C2 | -11.4% | – | –
4 | O=c1c2cc(-c3ccccc3)sc2nc2n1CCC2 | -10.8% | – | –
5 | O=C(Oc1ccc(N2C(=O)C3C4CCC(C4)C3C2=O)cc1)c1ccco1 (stereo not given) | 3.24% | – | –
6 | COc1ccc(C2C(C(=O)N3CCOCC3)CCC(=O)N2c2ccc(OC)cc2)cc1 (stereo not given) | – | 1.64 µM [rising, partial curve, poor fit] | 4.61 µM [rising, single point]
7 | CCCCN(C)C(=O)CNC(=O)c1nn(-c2ccc(OC)cc2OC)c(=O)c2ccccc12 | 40.5% | – | 29.1 µM [rising, single point]
8 | COc1cc2c(cc1OC)CN(C(=O)/C=C/c1cc(OC)c(OC)c(OC)c1)CC2 | -36.3% | 3.26 µM [falling, full curve] | 3.66 µM [falling, full curve, poor fit]
9 | O=C(Cn1cnc(S(=O)(=O)N2CCCC2)c1)Nc1cccc(Br)c1 | 5.7% | 6.51 µM [rising, partial curve, poor fit] | –
10 | CCn1c(-c2cc(C3CC3)nc3ccccc23)n[nH]c1=S | 20% | 5.17 µM [rising, full curve] | –
11 | Cc1cc(NC(=O)c2ccc3c(c2)OCO3)ccc1NC(=O)c1ccccc1 | 1.35% | 4.11 µM [falling, full curve] | –
12 | O=C(O)c1ccccc1SSc1ccccc1C(=O)O | – | 0.58 µM [rising, single point] | –
13 | COc1ccc(NC(=O)COC(=O)c2c3c(nc4ccccc24)CCCC3)cc1Cl | 11% | – | –
14 | COc1ccc(COC(=O)c2n[nH]c3ccccc23)cc1F | -74.8% | – | 29.1 µM [falling, single point]
15 | COCCCNC(=O)CC(C)c1ccccc1 (stereo not given) | -64.4% | 29.1 µM [falling, single point] | 18.4 µM [falling, single point]
16 | COc1cccc(C(=O)NC2CCN(C(=O)N3c4ccccc4Sc4ccccc43)CC2)c1 | -42.5% | 29.1 µM [falling, single point] | 23.1 µM [falling, single point]
17 | COc1ccc(CCNc2oc(-c3ccccc3OC)nc2C#N)cc1OC | – | 1.16 µM [rising, full curve, poor fit] | 0.92 µM [rising, full curve]
18 | O=C(CSc1cnc2ccccc2n1)c1ccc(F)cc1 | 30.9% | – | 6.51 µM [rising, partial curve]
19 | CC(C)c1ccc(OCc2ccc(C(=O)N(C)C)o2)cc1 | -19.3% | 29.1 µM [falling, single point] | –
20 | Cc1ccc(/C=N/NC(=O)c2nc3nc(C)cc(C)n3n2)cc1 | -5.41% | – | –

From no. 8 as far as 18, copied from above:
Row | SMILES | cell number change | AC50 [1] | AC50 [2]
8 | COc1cc2c(cc1OC)CN(C(=O)/C=C/c1cc(OC)c(OC)c(OC)c1)CC2 | -36.3% | 3.26 µM [falling, full curve] | 3.66 µM [falling, full curve, poor fit]
9 | O=C(Cn1cnc(S(=O)(=O)N2CCCC2)c1)Nc1cccc(Br)c1 | 5.7% | 6.51 µM [rising, partial curve, poor fit] | –
10 | CCn1c(-c2cc(C3CC3)nc3ccccc23)n[nH]c1=S | 20% | 5.17 µM [rising, full curve] | –
11 | Cc1cc(NC(=O)c2ccc3c(c2)OCO3)ccc1NC(=O)c1ccccc1 | 1.35% | 4.11 µM [falling, full curve] | –
12 | O=C(O)c1ccccc1SSc1ccccc1C(=O)O | – | 0.58 µM [rising, single point] | –
13 | COc1ccc(NC(=O)COC(=O)c2c3c(nc4ccccc24)CCCC3)cc1Cl | 11% | – | –
14 | COc1ccc(COC(=O)c2n[nH]c3ccccc23)cc1F | -74.8% | – | 29.1 µM [falling, single point]
15 | COCCCNC(=O)CC(C)c1ccccc1 (stereo not given) | -64.4% | 29.1 µM [falling, single point] | 18.4 µM [falling, single point]
16 | COc1cccc(C(=O)NC2CCN(C(=O)N3c4ccccc4Sc4ccccc43)CC2)c1 | -42.5% | 29.1 µM [falling, single point] | 23.1 µM [falling, single point]
17 | COc1ccc(CCNc2oc(-c3ccccc3OC)nc2C#N)cc1OC | – | 1.16 µM [rising, full curve, poor fit] | 0.92 µM [rising, full curve]
18 | O=C(CSc1cnc2ccccc2n1)c1ccc(F)cc1 | 30.9% | – | 6.51 µM [rising, partial curve]

Additional compounds:

Row | SMILES | cell number change | AC50 [1] | AC50 [2]
21 | CCOc1ccc(OCC(=O)Nc2ccc(OC)cc2)cc1 | -11.7% | 6.51 µM [falling, single point] | 1.46 µM [falling, partial curve]
22 | COc1ccc(N(C(=O)c2ccco2)S(=O)(=O)c2cccc([N+](=O)[O-])c2)cc1 | 17.4% | 0.651 µM [falling, full curve, poor fit] | –
23 | CC(=O)NC(CC(=O)NNC(=O)C(C)Oc1ccccc1F)c1ccccc1 (stereo not given) | -28% | – | 0.461 µM [falling, full curve, poor fit]
24 | COc1ccc(C)cc1Nc1n[n+](-c2ccccc2)c(-c2ccc(N(C)C)cc2)s1 | -10.4% | – | 0.058 µM [rising, full curve, poor fit]
25 | Cn1c(=O)c2ccccc2n(CC(=O)NCCC2=CCCCC2)c1=O | 10.8% | 0.00517 µM [rising, full curve, poor fit] | –
26 | CC(C)(C)OC(=O)NCCc1nnc(SCC(N)=O)o1 | 0.296% | – | –
27 | O=C(NC(=O)c1ccccc1)C1=C(N2CCCC2)COC1=O | -4.33% | 29.1 µM [falling, single point] | –
28 | COC(=O)c1c(C)[nH]c(C(=O)CSc2ccc(Cl)cc2)c1C | 2.43% | 0.461 µM [rising, partial curve, poor fit] | 0.461 µM [rising, full curve]
29 | Cc1ccc(F)cc1NC(=O)CSCc1nc2sc(C)c(C)c2c(=O)[nH]1 | – | – | 4.61 µM [rising, single point]
30 | O=c1cc(-c2ccc([N+](=O)[O-])cc2)c2ccc(O)cc2o1 | – | – | 0.00517 µM [falling, full curve, poor fit]
31 | COc1ccc(CNC(=O)C[C@H]2C(=O)N(Cc3ccc(OC)cc3)C[C@@H]2Cc2ccccc2)cc1 | -6.89% | 6.51 µM [rising, single point] | –
32 | O=C(NNS(=O)(=O)c1ccc(F)cc1)c1ccccc1 | -6.3% | 29.1 µM [rising, partial curve, poor fit] | –
33 | O=C(CSc1nnc(-c2ccncc2)n1C1CCCCC1)Nc1ccccc1 | 33.1% | 0.13 µM [rising, full curve, poor fit] | 0.13 µM [rising, full curve, poor fit]
34 | c1ccc(-c2nnc(CSc3nnc(-c4cccs4)o3)o2)cc1 | 2.84% | 3.66 µM [rising, partial curve] | –
35 | Cc1scc(C(=O)N/N=C/c2ccc(OCC(C)C)cc2)c1C | – | 2.06 µM [rising, partial curve] | 1.64 µM [rising, partial curve]
36 | O=c1cc(O)n(Cc2ccc(F)cc2)c(=O)[nH]1 | – | 6.51 µM [rising, single point] | –
37 | O=C(COC(=O)c1cc(S(=O)(=O)N2CCOCC2)c(Cl)cc1Cl)c1ccc[nH]1 | -13.3% | – | –
38 | Cc1cc(/C=N/NC(N)=O)c(C)n1C1CCCCC1 | 91.4% | – | –
39 | CCOC(=O)/C(=N\Nc1ccc(Cl)cc1)c1csc(Nc2ccccc2)n1 | -93% | 29.1 µM [falling, single point] | –
